Data from PMC8384837.
Residue numbers refer to the chain shown, from its start. This is one part of the list. For some assays here: At the low end of the ranking the order means little. For some assays here: The source does not settle which construct or isoform was used.

Columns and labels:
Details in all cases: yeast three-hybrid, YBZ-1, SC-Leu-His + 0.5 mM 3-AT, 4 days
[1] = target: T1, PUM1 PUF domain R1-QFR R2-VFQ R7-NPG S863Q + R864F + Q867R + N899V + Y900F + S1079N + N1080P + E1083G (UniProt Q14671)
T1 sequence: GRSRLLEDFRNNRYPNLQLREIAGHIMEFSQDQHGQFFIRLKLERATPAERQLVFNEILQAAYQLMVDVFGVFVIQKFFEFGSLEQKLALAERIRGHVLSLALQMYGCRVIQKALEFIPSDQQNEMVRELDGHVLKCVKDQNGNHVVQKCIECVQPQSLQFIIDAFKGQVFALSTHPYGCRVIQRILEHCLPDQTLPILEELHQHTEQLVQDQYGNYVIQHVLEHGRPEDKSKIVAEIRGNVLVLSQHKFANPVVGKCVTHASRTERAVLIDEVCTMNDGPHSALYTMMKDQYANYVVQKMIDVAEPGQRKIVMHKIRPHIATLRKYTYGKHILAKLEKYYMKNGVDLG

[2] = target: T2, PUM1 PUF domain R3-THE R4-TFR R7-NPG C935T + R936H + Q939E + N971T + H972F + Q975R + S1079N + N1080P + E1083G (UniProt Q14671)
T2 sequence: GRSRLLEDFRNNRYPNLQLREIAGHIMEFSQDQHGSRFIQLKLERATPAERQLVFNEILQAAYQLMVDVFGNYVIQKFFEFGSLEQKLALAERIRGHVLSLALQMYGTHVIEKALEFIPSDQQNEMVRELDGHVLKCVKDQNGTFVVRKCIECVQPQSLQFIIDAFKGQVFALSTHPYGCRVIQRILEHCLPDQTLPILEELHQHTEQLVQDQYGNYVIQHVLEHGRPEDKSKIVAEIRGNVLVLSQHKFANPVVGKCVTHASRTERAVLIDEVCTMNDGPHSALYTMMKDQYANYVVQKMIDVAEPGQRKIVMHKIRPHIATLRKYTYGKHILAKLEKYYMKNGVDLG

[3] = target: T3, PUM1 PUF domain R5-PHQ R6-SWD C1007P + R1008H + N1043S + Y1044W + Q1047D (UniProt Q14671)
T3 sequence: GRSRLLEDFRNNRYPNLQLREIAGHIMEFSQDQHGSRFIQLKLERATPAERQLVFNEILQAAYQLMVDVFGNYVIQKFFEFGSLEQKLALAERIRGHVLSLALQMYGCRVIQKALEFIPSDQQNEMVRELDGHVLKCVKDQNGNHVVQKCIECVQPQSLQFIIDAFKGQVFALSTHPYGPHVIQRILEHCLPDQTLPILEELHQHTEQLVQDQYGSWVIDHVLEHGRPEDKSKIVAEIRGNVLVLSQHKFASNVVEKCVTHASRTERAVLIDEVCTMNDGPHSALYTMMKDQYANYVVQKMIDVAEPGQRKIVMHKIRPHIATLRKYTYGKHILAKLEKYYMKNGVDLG

[4] = target: T4, PUM1 PUF domain R6-SWD R7-NPG N1043S + Y1044W + Q1047D + S1079N + N1080P + E1083G (Homo sapiens) (UniProt Q14671)
T4 sequence: T3 sequence with P180C, H181R, S252N, N253P, E256G

[5] = target: T5, PUM1 PUF domain R2-VFQ R3-THE R4-TFR N899V + Y900F + C935T + R936H + Q939E + N971T + H972F + Q975R (UniProt Q14671)
T5 sequence: T2 sequence with N72V, Y73F, N252S, P253N, G256E

[6] = target: T6, PUM1 PUF domain R6-SWD R7-NPG N1043S + Y1044W + Q1047D + S1079N + N1080P + E1083G (UniProt Q14671)
T6 sequence: T3 sequence with P180C, H181R, S252N, N253P, E256G

Q: How did the binding signal (log2 enrichment (interaction score)) [1] turn out when “GGCUAGAACUAGUGGAUCCCCCGGCGCCCGGCGGCUCGAGCCCGGGUAAGUUGAAAGAGUCUGCAUGCCGCCGGGCGCCAUGCCUGCAGGUCGACUCUAGAAAACAUG” was run?
A: -6.97

Q: And the binding signal (log2 enrichment (interaction score)) [2]?
A: -2.12

Q: What about the binding signal (log2 enrichment (interaction score)) [3] of the same sequence?
A: -7.33

Q: Which binding signal (log2 enrichment (interaction score)) [1] does the source give for “GGCUAGAACUAGUGGAUCCCCCGGCGCCCGGCGGCUCGAGCCCGGGUAAGUCUAAUUAGUCUGCAUGCCGCCGGGCGCCAUGCCUGCAGGUCGACUCUAGAAAACAUG” here?
A: -5.6

Q: And the binding signal (log2 enrichment (interaction score)) [3]?
A: < -7.63

Q: And the binding signal (log2 enrichment (interaction score)) [4]?
A: -1.2

Q: For “GGCUAGAACUAGUGGAUCCCCCGGCGCCCGGCGGCUCGAGCCCGGGUAAGUUGUAAAAGUCUGCAUGCCGCCGGGCGCCAUGCCUGCAGGUCGACUCUAGAAAACAUG”, which binding signal (log2 enrichment (interaction score)) [1] is on record?
A: -4.78

Q: And the binding signal (log2 enrichment (interaction score)) [3]?
A: -7.98

Q: “GGCUAGAACUAGUGGAUCCCCCGGCGCCCGGCGGCUCGAGCCCGGGUAAGUUUAAAUUGUCUGCAUGCCGCCGGGCGCCAUGCCUGCAGGUCGACUCUAGAAAACAUG” was tested. Which binding signal (log2 enrichment (interaction score)) [1] did it give?
A: -5.81

Q: And the binding signal (log2 enrichment (interaction score)) [3]?
A: < -7.73

Q: What does the source list for “GGCUAGAACUAGUGGAUCCCCCGGCGCCCGGCGGCUCGAGCCCGGGUAAGUUGACAUCGUCUGCAUGCCGCCGGGCGCCAUGCCUGCAGGUCGACUCUAGAAAACAUG”?
A: binding signal (log2 enrichment (interaction score)) [1]: -4.91; binding signal (log2 enrichment (interaction score)) [3]: -7.77

Q: “GGCUAGAACUAGUGGAUCCCCCGGCGCCCGGCGGCUCGAGCCCGGGUAAGUUGAGAAAGUCUGCAUGCCGCCGGGCGCCAUGCCUGCAGGUCGACUCUAGAAAACAUG” was tested. Which binding signal (log2 enrichment (interaction score)) [1] did it give?
A: -5.59

Q: And the binding signal (log2 enrichment (interaction score)) [3]?
A: -7.52

Q: For “GGCUAGAACUAGUGGAUCCCCCGGCGCCCGGCGGCUCGAGCCCGGGUAAGUAGAAACAGUCUGCAUGCCGCCGGGCGCCAUGCCUGCAGGUCGACUCUAGAAAACAUG”, which binding signal (log2 enrichment (interaction score)) [1] is on record?
A: < -5.84

Q: What about the binding signal (log2 enrichment (interaction score)) [3] of the same sequence?
A: -7.59

Q: “GGCUAGAACUAGUGGAUCCCCCGGCGCCCGGCGGCUCGAGCCCGGGUAAGUUUCAAUGGUCUGCAUGCCGCCGGGCGCCAUGCCUGCAGGUCGACUCUAGAAAACAUG” was tested. Which binding signal (log2 enrichment (interaction score)) [1] did it give?
A: < -5.85

Q: What about the binding signal (log2 enrichment (interaction score)) [2] of the same sequence?
A: < -3.04

Q: And the binding signal (log2 enrichment (interaction score)) [3]?
A: -8.16

Q: For “GGCUAGAACUAGUGGAUCCCCCGGCGCCCGGCGGCUCGAGCCCGGGUAAGUUGGAGAAGUCUGCAUGCCGCCGGGCGCCAUGCCUGCAGGUCGACUCUAGAAAACAUG”, which binding signal (log2 enrichment (interaction score)) [1] is on record?
A: -5.45

Q: What about the binding signal (log2 enrichment (interaction score)) [2] of the same sequence?
A: -2.3

Q: And the binding signal (log2 enrichment (interaction score)) [3]?
A: -6.83

Q: Which results are given for “GGCUAGAACUAGUGGAUCCCCCGGCGCCCGGCGGCUCGAGCCCGGGUAAGUUUAUGUAGUCUGCAUGCCGCCGGGCGCCAUGCCUGCAGGUCGACUCUAGAAAACAUG”?
A: binding signal (log2 enrichment (interaction score)) [1]: -5.83; binding signal (log2 enrichment (interaction score)) [3]: < -7.77

Q: Which results are given for “GGCUAGAACUAGUGGAUCCCCCGGCGCCCGGCGGCUCGAGCCCGGGUAAGUUGUAAUAGUCUGCAUGCCGCCGGGCGCCAUGCCUGCAGGUCGACUCUAGAAAACAUG”?
A: binding signal (log2 enrichment (interaction score)) [1]: -5.41; binding signal (log2 enrichment (interaction score)) [3]: < -7.16

Q: Which binding signal (log2 enrichment (interaction score)) [5] does the source give for “GGCUAGAACUAGUGGAUCCCCCGGCGCCCGGCGGCUCGAGCCCGGGUAAGUUCAUGUCGUCUGCAUGCCGCCGGGCGCCAUGCCUGCAGGUCGACUCUAGAAAACAUG” here?
A: -5.34

Q: With “GGCUAGAACUAGUGGAUCCCCCGGCGCCCGGCGGCUCGAGCCCGGGUAAGUGUCCCAAGUCUGCAUGCCGCCGGGCGCCAUGCCUGCAGGUCGACUCUAGAAAACAUG” as the sequence, how does the binding signal (log2 enrichment (interaction score)) [1] read?
A: -6.2

Q: And the binding signal (log2 enrichment (interaction score)) [4]?
A: -0.61

Q: For “GGCUAGAACUAGUGGAUCCCCCGGCGCCCGGCGGCUCGAGCCCGGGUAAGAGGAACAAGUCUGCAUGCCGCCGGGCGCCAUGCCUGCAGGUCGACUCUAGAAAACAUG”, which binding signal (log2 enrichment (interaction score)) [5] is on record?
A: -4.7

Q: Which binding signal (log2 enrichment (interaction score)) [5] does the source give for “GGCUAGAACUAGUGGAUCCCCCGGCGCCCGGCGGCUCGAGCCCGGGUAAGUGCACAUAGUCUGCAUGCCGCCGGGCGCCAUGCCUGCAGGUCGACUCUAGAAAACAUG” here?
A: -5.96

Q: Which binding signal (log2 enrichment (interaction score)) [5] does the source give for “GGCUAGAACUAGUGGAUCCCCCGGCGCCCGGCGGCUCGAGCCCGGGUAAGGUAUCGAAGUCUGCAUGCCGCCGGGCGCCAUGCCUGCAGGUCGACUCUAGAAAACAUG” here?
A: -5.78

Q: “GGCUAGAACUAGUGGAUCCCCCGGCGCCCGGCGGCUCGAGCCCGGGUAAGUUUACAUCGUCUGCAUGCCGCCGGGCGCCAUGCCUGCAGGUCGACUCUAGAAAACAUG” was tested. Which binding signal (log2 enrichment (interaction score)) [1] did it give?
A: -6.84

Q: What about the binding signal (log2 enrichment (interaction score)) [3] of the same sequence?
A: -6.7

Q: What about the binding signal (log2 enrichment (interaction score)) [6] of the same sequence?
A: -2.32
